This is an account of results in PubChem BioAssay AID330 (DTP/NCI, 2004).

Structures are written as SMILES. The list shows only some results of the screen, not a fair sample: it is rich in T/C values a quarter to a half above the control, in often repeated tests (any T/C) and in doses without a T/C. Other doses and runs of a compound stand elsewhere. T/C is the treated group as % of the vehicle group. Some entries give survivors of the animals treated and no T/C: the source files T/C as zero there, which appears to mark a toxic dose or a test without result, not a measured value. Some survivor counts are full or nearly so, which does not show that the dose was tolerated: survival well below the control is almost never listed, so the zero probably covers shortened survival too. Counts of survivors are from the toxicity check (mostly the fifth day) where no day follows; animals may have died later. Schedules are NCI's codes, taken here to give the interval after Q, in days (D) or hours (H), and the number of doses after X. Some doses were run more than once; the values are given in rising order. Where survival is the endpoint, the PubChem record calls one and a half times the control and up active, and a quarter to a half above the control has no call in these data; cut-offs in other NCI protocols can differ. Some T/C values are followed by the survivors on the day toxicity was checked, most often the fifth; where none is given, no animal had died by that day.

For the test, the system named is P388 leukemia ip, CD2F1 mice, survival T/C. Put plainly: NCI In Vivo Anticancer Drug Screen. Data for tumor model P388 Leukemia (intraperitoneal) in CD2F1 (CDF1) mice. The conditions noted are these: T/C endpoint: median survival time, higher T/C = longer survival.
[1] abbreviates: dose: 100.0 mg/kg/injection, schedule: Q01DX009 (ip), vehicle: saline with Tween-80.
[2] abbreviates: dose: 200.0 mg/kg/injection, schedule: Q01DX009 (ip), vehicle: saline with Tween-80.
Where [3] appears, read: dose: 200.0 mg/kg/injection, schedule: Q01DX009 (ip), vehicle: Klucel (hydroxypropylcellulose) (HPC).
The mark [4] stands for this setting: dose: 60.0 mg/kg/injection, schedule: Q01DX005 (ip), vehicle: saline with Tween-80.
Setting [5] is: dose: 120.0 mg/kg/injection, schedule: Q01DX005 (ip), vehicle: saline with Tween-80.
Where [6] appears, read: dose: 240.0 mg/kg/injection, schedule: Q01DX005 (ip), vehicle: saline with Tween-80.
[7] abbreviates: dose: 240.0 mg/kg/injection, schedule: Q01DX005 (ip), vehicle: Klucel (hydroxypropylcellulose) (HPC).
The mark [8] stands for this setting: dose: 50.0 mg/kg/injection, schedule: Q01DX009 (ip), vehicle: saline.
[9] abbreviates: dose: 100.0 mg/kg/injection, schedule: Q01DX009 (ip), vehicle: saline.
[10] abbreviates: dose: 200.0 mg/kg/injection, schedule: Q01DX009 (ip), vehicle: saline.
[11] abbreviates: dose: 50.0 mg/kg/injection, schedule: Q01DX009 (ip), vehicle: saline with Tween-80.

For `OC1(c2nccc3ccccc23)CCN(CCc2ccccc2)CC1`, the survivor count was 6 of 6 under setting [1] and 6 of 6 under setting [2].
`CCCCCCC/C=C/C(=O)OC1C(OC2C(OC(CCCCCCC)CC(=O)OC(CCCCCCC)CC(=O)O)OC(C)C(O)C2O)OC(C)C(O)C1O` (stereo not given): the survivor count under setting [3] is reported as 1 of 6.
For the compound `[CH3][Sn]([CH3])([CH3])[N](C#N)C(=Nc1ccccc1)NC#N`, the survivor count is given as 0 of 6 (dose: 6.25 mg/kg/injection, schedule: Q01DX005 (ip), vehicle: Klucel (hydroxypropylcellulose) (HPC)); 0 of 6 (dose: 12.5 mg/kg/injection, schedule: Q01DX005 (ip), vehicle: Klucel (hydroxypropylcellulose) (HPC)); 0 of 6 (dose: 25.0 mg/kg/injection, schedule: Q01DX005 (ip), vehicle: Klucel (hydroxypropylcellulose) (HPC)); 0 of 6 (dose: 100.0 mg/kg/injection, schedule: Q04DX002 (ip), vehicle: Klucel (hydroxypropylcellulose) (HPC)); 0 of 6 (dose: 200.0 mg/kg/injection, schedule: Q04DX002 (ip), vehicle: Klucel (hydroxypropylcellulose) (HPC)); 0 of 6 (dose: 400.0 mg/kg/injection, schedule: Q04DX002 (ip), vehicle: Klucel (hydroxypropylcellulose) (HPC)).
Consider `O=CN1CCCC1Cc1ccccc1` (stereo not given), for which, where the note is “dose: 200.0 mg/kg/injection, schedule: Q01DX001 (ip), vehicle: Klucel (hydroxypropylcellulose) (HPC)”, the survivor count is recorded as 3 of 6.
Take `CCN(CC)CCN1C(=O)CN=C(c2ccc[nH]2)c2cc(Cl)ccc21`: the survivor count under setting [2] is 6 of 6.
With `C[CH2][Ge]([CH2]C)[O]C(=O)C(=O)[O][Ge]([CH2]C)[CH2]C`, the survivor count was 0 of 6 (dose: 50.0 mg/kg/injection, schedule: Q01DX005 (ip), vehicle: Klucel (hydroxypropylcellulose) (HPC)); 0 of 6 (dose: 100.0 mg/kg/injection, schedule: Q01DX005 (ip), vehicle: Klucel (hydroxypropylcellulose) (HPC)); 0 of 6 (dose: 200.0 mg/kg/injection, schedule: Q01DX005 (ip), vehicle: Klucel (hydroxypropylcellulose) (HPC)).
For `Cc1ccc(NC(=O)Oc2cc(C)c(Br)c(C)c2)cc1[N+](=O)[O-]`, the survivor count (dose: 100.0 mg/kg/injection, schedule: Q01DX009 (ip), vehicle: saline + alcohol) was 6 of 6.
For the compound `CC1(C)N=C(N)N=C(N)N1c1ccc(OCCCOc2ccc(S(=O)(=O)F)cc2)c(Cl)c1`, for the setting “dose: 50.0 mg/kg/injection, schedule: Q04DX003 (ip), vehicle: saline”, the T/C was 130 % of control.
`O=C1/C(=C\c2ccccc2)C2OCC=C3CN4CCC56c7ccccc7N1C5C2C3CC46` (stereo not given): the survivor count under setting [4] is 0 of 6, the survivor count under setting [5] was 0 of 6 and the survivor count under setting [6] is given as 0 of 6.
With `CCOc1nc(=O)[nH]c2c1CCCC2`, the survivor count under setting [7] is recorded as 2 of 6.
`CCC[CH2][Sn]([Cl])([CH2]C)[O][Sn]([Cl])([CH2]C)[CH2]CCC` (stereo not given): the T/C reads like this: (dose: 6.25 mg/kg/injection, schedule: Q01DX009 (ip), vehicle: saline) 137 % of control; (dose: 12.5 mg/kg/injection, schedule: Q01DX009 (ip), vehicle: saline) 135 % of control; (dose: 25.0 mg/kg/injection, schedule: Q01DX009 (ip), vehicle: saline) 135 % of control [5 of 6 alive]; under setting [8], 148 % of control [5 of 6 alive]. In addition, the survivor count under setting [8] was 0 of 6, the survivor count under setting [9] is 2 of 6 and the survivor count under setting [10] is on record as 0 of 6.
With `CCS/C(C#N)=C(/Br)c1ccc(OC)cc1`, under setting [2], the survivor count is 6 of 6.
In the case of `COc1ccccc1-n1cc[n+](C)c1/C=N/O`, the survivor count under setting [11] was 2 of 6, the survivor count under setting [9] is 0 of 6 and the survivor count under setting [10] is 0 of 6.
On to `CCCCCCCCCCC/C=C/[N+](=O)[O-]`, for which the survivor count (dose: 80.0 mg/kg/injection, schedule: Q01DX005 (ip), vehicle: Klucel (hydroxypropylcellulose) (HPC)) is on record as 0 of 6.
For `CN1Cc2c(N)cccc2C(c2ccccc2)C1` (stereo not given), under setting [3], the survivor count was 0 of 6.
Turning to `COC(=O)C1(CC(=O)/C=C/c2ccccc2)NC(=S)NC(=O)C1C#N` (stereo not given), the survivor count (dose: 120.0 mg/kg/injection, schedule: Q01DX005 (ip), vehicle: Klucel (hydroxypropylcellulose) (HPC)) is 4 of 6 and 6 of 6.
In the case of `O=C(N/N=C/c1ccccc1O)c1cc2ccccc2cc1O`, the survivor count is, setting by setting: (dose: 30.0 mg/kg/injection, schedule: Q01DX005 (ip), vehicle: saline with Tween-80) 6 of 6; under setting [4], 6 of 6; under setting [5], 6 of 6; under setting [6], 6 of 6.
For the compound `COC1OC(CNC(=O)N(CCCl)N=O)C(O)C(O)C1O` (stereo not given), the T/C (dose: 0.78 mg/kg/injection, schedule: Q01DX009 (ip), vehicle: saline) is 146 % of control.
Consider `COc1cccc(C2c3cc4c(cc3OC(C)(N3CCCC3)C2C)OCO4)c1OC` (stereo not given), for which the survivor count under setting [7] is listed as 5 of 6.
Turning to `CCOP(=S)(Nc1ccc(F)cc1F)OCC`, the survivor count (dose: 400.0 mg/kg/injection, schedule: Q04DX002 (ip), vehicle: saline with Tween-80) is listed as 2 of 6.
`CC(=O)c1cnn(C(N)=O)c1C`: for the setting “dose: 60.0 mg/kg/injection, schedule: Q01DX005 (ip), vehicle: Klucel (hydroxypropylcellulose) (HPC)”, the T/C is 127 % of control.
Consider `CCCCN(C)N=Nc1ccccc1C(N)=O`, for which the T/C was 145 % of control under setting [1] and 131 % of control (dose: 400.0 mg/kg/injection, schedule: Q04DX003 (ip), vehicle: saline with Tween-80).
Consider `CCCCCCCCCCCCCCCCCS(=O)S(=O)O` (stereo not given), for which, where the note is “dose: 400.0 mg/kg/injection, schedule: Q01DX009 (ip), vehicle: saline with Tween-80”, the T/C is 131 % of control.
Consider `Cc1ccc(NCN2C(=O)c3ccccc3C2=O)c(C)n1`, for which the survivor count under setting [7] is given as 0 of 6.
In the case of `CCCCCCC[N+]1(CC)CCCCC1`, the survivor count is 3 of 6 under setting [8], 0 of 6 under setting [9] and 0 of 6 under setting [10].
As to `COc1cccc2c1C(=O)c1c(O)c3c(c(O)c1C2=O)CC(O)(C(N)=O)CC3OC1CC(N)C(O)C(C)O1` (stereo not given), the T/C was 131 % of control (dose: 0.78 mg/kg/injection, schedule: Q01DX009 (ip), vehicle: water); 127 % of control (dose: 1.56 mg/kg/injection, schedule: Q01DX009 (ip), vehicle: water); 142 % of control [5 of 6 alive] (dose: 3.13 mg/kg/injection, schedule: Q01DX009 (ip), vehicle: water).
For the compound `CC1=NCC(C)c2ccccc21` (stereo not given), the survivor count is, setting by setting: (dose: 25.0 mg/kg/injection, schedule: Q01DX009 (ip), vehicle: saline with Tween-80) 0 of 6; under setting [11], 0 of 6; under setting [1], 0 of 6; under setting [2], 0 of 6.
In the case of `CN1CCc2cc(O)c(O)cc2C1`, the survivor count (dose: 400.0 mg/kg/injection, schedule: Q04DX003 (ip), vehicle: saline) was 2 of 6.
For the compound `c1ccc2c3c(c4c(c2c1)CN(C1CCCCC1)CO4)OCN(C1CCCCC1)C3`, the T/C (dose: 25.0 mg/kg/injection, schedule: Q01DX005 (ip), vehicle: saline with Tween-80) is 131 and 132 % of control. Besides, the survivor count by setting is: (dose: 50.0 mg/kg/injection, schedule: Q01DX005 (ip), vehicle: saline with Tween-80) 6 of 6; (dose: 100.0 mg/kg/injection, schedule: Q01DX005 (ip), vehicle: saline with Tween-80) 6 of 6; (dose: 200.0 mg/kg/injection, schedule: Q01DX005 (ip), vehicle: saline with Tween-80) 0 of 6.
On to `O=S(=O)(SC(S(=O)(=O)c1ccccc1)S(=O)(=O)c1ccccc1)c1ccccc1`, for which the T/C by setting is: (dose: 50.0 mg/kg/injection, schedule: Q01DX009 (ip), vehicle: Klucel (hydroxypropylcellulose) (HPC)) 126 and 132 % of control; (dose: 100.0 mg/kg/injection, schedule: Q01DX009 (ip), vehicle: Klucel (hydroxypropylcellulose) (HPC)) 130, 131, 136 % of control; under setting [3], 125 and 133 % of control. Besides, where the note is “dose: 800.0 mg/kg/injection, schedule: Q01DX009 (ip), vehicle: Klucel (hydroxypropylcellulose) (HPC)”, the survivor count is 6 of 6.
